In the supplement of paper PMC8728848:
This is one part of the list.

How the values were obtained:
Experiment in all cases: glycan array binding signal (z-score within array); higher = stronger binding
Conditions in all cases: glycan notation: IUPAC condensed, linker removed
[1] = target: Fuc(a1-2)Gal(b1-4)[Fuc(a1-3)]GlcNAc(b1-2)Man(a1-3)[Fuc(a1-2)Gal(b1-4)[Fuc(a1-3)]GlcNAc(b1-2)Man(a1-6)]Man(b1-4)GlcNAc(b1-4)[Fuc(a1-6)]GlcNAc
In short: (§1)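 Columns mapping to the same glycan were averaged after glycan names were converted to IUPAC-condensed notation. The data come from 3228 arrays in the Consortium for Functional Glycomics database, limited to those with an available protein sequence. Binding is reported as a within-array Z-score averaged across arrays of one protein sequence and across linkers.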

[2] = target: Fuc(a1-2)Gal(b1-4)[Fuc(a1-3)]GlcNAc(b1-2)[Fuc(a1-2)Gal(b1-4)[Fuc(a1-3)]GlcNAc(b1-4)]Man(a1-3)[Fuc(a1-2)Gal(b1-4)[Fuc(a1-3)]GlcNAc(b1-2)Man(a1-6)]Man(b1-4)GlcNAc(b1-4)GlcNAc
In short: as §1

[3] = target: Fuc(a1-2)Gal(b1-4)[Fuc(a1-3)]GlcNAc(b1-3)Gal(b1-4)[Fuc(a1-3)]GlcNAc
In short: as §1

[4] = target: Fuc(a1-2)Gal(b1-4)[Fuc(a1-3)]GlcNAc(b1-3)Gal(b1-4)[Fuc(a1-3)]GlcNAc(b1-3)Gal(b1-4)[Fuc(a1-3)]GlcNAc
In short: as §1

[5] = target: Fuc(a1-2)Gal(b1-4)[Fuc(a1-3)]GlcNAc(b1-3)GalNAc
In short: as §1

[6] = target: Fuc(a1-2)Gal(b1-4)[Fuc(a1-3)]GlcNAc(b1-3)[Neu5Ac(a2-6)Gal(b1-4)GlcNAc(b1-6)]Gal(b1-4)Glc
In short: as §1

[7] = target: Fuc(a1-2)Gal3S(b1-4)GlcNAc
In short: as §1

[8] = target: Fuc(a1-2)Gal6S(b1-3)GlcNAc
In short: as §1

[9] = target: Fuc(a1-2)Gal6S(b1-3)GlcNAc6S
In short: as §1

Fuc(a1-2)Gal6S(b1-4)Glc = target: Fuc(a1-2)Gal6S(b1-4)Glc
In short: as §1

[10] = target: Fuc(a1-2)Gal6S(b1-4)Glc6S
In short: as §1

Fuc(a1-2)[Gal(a1-3)]Gal = target: Fuc(a1-2)[Gal(a1-3)]Gal
In short: as §1

[11] = target: Fuc(a1-2)[Gal(a1-3)]Gal(b1-3)GalNAc
In short: as §1

[12] = target: Fuc(a1-2)[Gal(a1-3)]Gal(b1-3)GalNAc(b1-3)Gal(a1-4)Gal(b1-4)Glc
In short: as §1

[13] = target: Fuc(a1-2)[Gal(a1-3)]Gal(b1-3)GlcNAc
In short: as §1

[14] = target: Fuc(a1-2)[Gal(a1-3)]Gal(b1-3)GlcNAc(b1-2)Man(a1-3)[Fuc(a1-2)[Gal(a1-3)]Gal(b1-3)GlcNAc(b1-2)Man(a1-6)]Man(b1-4)GlcNAc(b1-4)GlcNAc
In short: as §1

[15] = target: Fuc(a1-2)[Gal(a1-3)]Gal(b1-3)GlcNAc(b1-2)Man(a1-3)[Fuc(a1-2)[Gal(a1-3)]Gal(b1-3)GlcNAc(b1-2)Man(a1-6)]Man(b1-4)GlcNAc(b1-4)[Fuc(a1-6)]GlcNAc
In short: as §1

[16] = target: Fuc(a1-2)[Gal(a1-3)]Gal(b1-3)GlcNAc(b1-3)GalNAc
In short: as §1

[17] = target: Fuc(a1-2)[Gal(a1-3)]Gal(b1-3)GlcNAc(b1-6)GalNAc
In short: as §1

[18] = target: Fuc(a1-2)[Gal(a1-3)]Gal(b1-4)Glc
In short: as §1

[19] = target: Fuc(a1-2)[Gal(a1-3)]Gal(b1-4)GlcNAc
In short: as §1

[20] = target: Fuc(a1-2)[Gal(a1-3)]Gal(b1-4)GlcNAc(b1-2)Man
In short: as §1

[21] = target: Fuc(a1-2)[Gal(a1-3)]Gal(b1-4)GlcNAc(b1-2)Man(a1-3)[Fuc(a1-2)[Gal(a1-3)]Gal(b1-4)GlcNAc(b1-2)Man(a1-6)]Man(b1-4)GlcNAc(b1-4)GlcNAc
In short: as §1

[22] = target: Fuc(a1-2)[Gal(a1-3)]Gal(b1-4)GlcNAc(b1-2)Man(a1-3)[Fuc(a1-2)[Gal(a1-3)]Gal(b1-4)GlcNAc(b1-2)Man(a1-6)]Man(b1-4)GlcNAc(b1-4)[Fuc(a1-6)]GlcNAc
In short: as §1

[23] = target: Fuc(a1-2)[Gal(a1-3)]Gal(b1-4)GlcNAc(b1-3)GalNAc
In short: as §1

[24] = target: Fuc(a1-2)[Gal(a1-3)]Gal(b1-4)GlcNAc(b1-3)[Fuc(a1-2)[Gal(a1-3)]Gal(b1-4)GlcNAc(b1-6)]GalNAc
In short: as §1

[25] = target: Fuc(a1-2)[Gal(a1-3)]Gal(b1-4)GlcNAc(b1-6)GalNAc
In short: as §1

[26] = target: Fuc(a1-2)[Gal(a1-3)]Gal(b1-4)[Fuc(a1-3)]Glc
In short: as §1

[27] = target: Fuc(a1-2)[Gal(a1-3)]Gal(b1-4)[Fuc(a1-3)]GlcNAc
In short: as §1

[28] = target: Fuc(a1-2)[Gal(a1-3)]Gal(b1-4)[Fuc(a1-3)]GlcNAc(b1-3)GalNAc
In short: as §1

[29] = target: Fuc(a1-2)[Gal(a1-4)]Gal(b1-4)GlcNAc
In short: as §1

[30] = target: Fuc(a1-2)[GalNAc(a1-3)]Gal
In short: as §1

[31] = target: Fuc(a1-2)[GalNAc(a1-3)]Gal(b1-3)GalNAc(a1-3)[Fuc(a1-2)]Gal(b1-4)GlcNAc
In short: as §1

[32] = target: Fuc(a1-2)[GalNAc(a1-3)]Gal(b1-3)GalNAc(b1-3)Gal(a1-4)Gal(b1-4)Glc
In short: as §1

[33] = target: Fuc(a1-2)[GalNAc(a1-3)]Gal(b1-3)GlcNAc
In short: as §1

[34] = target: Fuc(a1-2)[GalNAc(a1-3)]Gal(b1-3)GlcNAc(b1-2)Man(a1-3)[Fuc(a1-2)[GalNAc(a1-3)]Gal(b1-3)GlcNAc(b1-2)Man(a1-6)]Man(b1-4)GlcNAc(b1-4)GlcNAc
In short: as §1

[35] = target: Fuc(a1-2)[GalNAc(a1-3)]Gal(b1-3)GlcNAc(b1-2)Man(a1-3)[Fuc(a1-2)[GalNAc(a1-3)]Gal(b1-3)GlcNAc(b1-2)Man(a1-6)]Man(b1-4)GlcNAc(b1-4)[Fuc(a1-6)]GlcNAc
In short: as §1

[36] = target: Fuc(a1-2)[GalNAc(a1-3)]Gal(b1-3)GlcNAc(b1-3)GalNAc
In short: as §1

B1: PX14404-bvu-534-26-534 (Bacteroides vulgatus) (protein)
chain: EDPRGKLTPENFFSTQDELNMSIYALYQKVNLSQVYTNMQLPQWQGDDITTNPGSNKQPAAEMDKFAAANNNKGVKDAWNMHYAIVKAANLIIQGASKTPTTQDEINIALGQAKFWRAYAYFTLVRLWGPLPMNLDNVNDDYTKPLSPVEEVYGHIVQDLTEAEAVLPTGYSGSPRFLNGVNVYVTRQAAKSTLAAVYMAMAGWPMNKTEYYAKAAEKAKEVIEGVNRGEYEYKLDKDYKDVYAMSNNYNNETVLGINYSPFVDWAQDSELTSCNQFESLGGWGDAWGEIRFWKEFPDGPRKDATYDPKIRLKDGTLVDWWELKEDGTPVVPEHHPMFSIFSVNWDPASKVNTSAPYDYTKPASQNMCNDHRHRIIRYSEVLLWYAEAKARTGQTDELAFKCLNDVRERAGLEPLTGLSADDLAEAAYKEHGWEVAGYWVALVTRRADQFRMNRLKDTFKERAENTAVEVADGILVKESVEYTNRTWSDNLMYLPYPDMDSQKNPNLVR
glycan array binding signal (z-score) [1]: -0.323
glycan array binding signal (z-score) [2]: 0.07
glycan array binding signal (z-score) [3]: -0.992
glycan array binding signal (z-score) [4]: 0.784
glycan array binding signal (z-score) [5]: -0.27
glycan array binding signal (z-score) [6]: -0.038
glycan array binding signal (z-score) [7]: 0.148
glycan array binding signal (z-score) [8]: 0.297
glycan array binding signal (z-score) [9]: 0.503
glycan array binding signal (z-score) (Fuc(a1-2)Gal6S(b1-4)Glc): 2.73
glycan array binding signal (z-score) [10]: 1.47
glycan array binding signal (z-score) (Fuc(a1-2)[Gal(a1-3)]Gal): -0.5
glycan array binding signal (z-score) [11]: 0.15
glycan array binding signal (z-score) [12]: -0.755
glycan array binding signal (z-score) [13]: 1.29
glycan array binding signal (z-score) [14]: -0.572
glycan array binding signal (z-score) [15]: 0.31
glycan array binding signal (z-score) [16]: -0.003
glycan array binding signal (z-score) [17]: -0.306
glycan array binding signal (z-score) [18]: 0.113
glycan array binding signal (z-score) [19]: -0.205
glycan array binding signal (z-score) [20]: -0.163
glycan array binding signal (z-score) [21]: 0.087
glycan array binding signal (z-score) [22]: 1.91
glycan array binding signal (z-score) [23]: -1.01
glycan array binding signal (z-score) [24]: 0.311
glycan array binding signal (z-score) [25]: 0.709
glycan array binding signal (z-score) [26]: -1.1
glycan array binding signal (z-score) [27]: -0.768
glycan array binding signal (z-score) [28]: 0.147
glycan array binding signal (z-score) [29]: 0.074
glycan array binding signal (z-score) [30]: -0.368
glycan array binding signal (z-score) [31]: -0.524
glycan array binding signal (z-score) [32]: -0.002
glycan array binding signal (z-score) [33]: 0.491
glycan array binding signal (z-score) [34]: 0.949
glycan array binding signal (z-score) [35]: -1.04
glycan array binding signal (z-score) [36]: -0.573
